These are yes or no findings as the source states them, for the method shown. Binding seen in cells or lysates may run through a third protein. Here binding means that the protein was enriched with, or labelled near, the bait; the list need not be complete.
Biological target: HA-tagged p54^nrb
Experiment: affinity purification with mass spectrometry; anti-HA immunoprecipitation from the nuclear fraction (RIPA) of HL-1 cells transduced with HA-p54^nrb, in normoxia or hypoxia (1% O2, 4 hr); 150 μg protein, protein G beads overnight at 4 °C, elution with HA peptides; label-free quantitative …

binding: binds
B1: DAZAP1 (protein, UniProt Q9JII5 1-406)
chain: MNSAGADEIGKLFVGGLDWSTTQETLRSYFSQYGEVVDCVIMKDKTTNQSRGFGFVKFKDPNCVGTVLASRPHTLDGRNIDPKPCTPRGMQPERTRPKEGWQKGPRSDSSKSNKIFVGGIPHNCGETELREYFKKFGVVTEVVMIYDAEKQRPRGFGFITFEDEQSVDQAVNMHFHDIMGKKVEVKRAEPRDSKNQAPGQPGASQWGSRVAPSAANGWAGQPPPTWQQGYGPQGMWVPAGQAIGGYGPPPAGRGAPPPPPPFTSYIVSTPPGGFPPPQGFPQGYGAPPQFSFGYGPPPPPPDQFAPPGVPPPPATPGAAPLAFPPPPSQAAPDMSKPPTAQPDFPYGQYGYGQDLSGFGQGFSDPSQQPPSYGGPSVPGSGGPPAGGSGFGRGQNHNVQGFHPYRR

Reference: article PMC9799981
